Reference: article PMC12698754
These are yes or no findings as the source states them, for the method shown. Binding seen in cells or lysates may run through a third protein. These calls come from enrichment with a bait or labelling near it, and not all partners need be listed.

Sequences of proteins named here, by UniProt entry; tags and fusion partners are left off.
UniProt P46379: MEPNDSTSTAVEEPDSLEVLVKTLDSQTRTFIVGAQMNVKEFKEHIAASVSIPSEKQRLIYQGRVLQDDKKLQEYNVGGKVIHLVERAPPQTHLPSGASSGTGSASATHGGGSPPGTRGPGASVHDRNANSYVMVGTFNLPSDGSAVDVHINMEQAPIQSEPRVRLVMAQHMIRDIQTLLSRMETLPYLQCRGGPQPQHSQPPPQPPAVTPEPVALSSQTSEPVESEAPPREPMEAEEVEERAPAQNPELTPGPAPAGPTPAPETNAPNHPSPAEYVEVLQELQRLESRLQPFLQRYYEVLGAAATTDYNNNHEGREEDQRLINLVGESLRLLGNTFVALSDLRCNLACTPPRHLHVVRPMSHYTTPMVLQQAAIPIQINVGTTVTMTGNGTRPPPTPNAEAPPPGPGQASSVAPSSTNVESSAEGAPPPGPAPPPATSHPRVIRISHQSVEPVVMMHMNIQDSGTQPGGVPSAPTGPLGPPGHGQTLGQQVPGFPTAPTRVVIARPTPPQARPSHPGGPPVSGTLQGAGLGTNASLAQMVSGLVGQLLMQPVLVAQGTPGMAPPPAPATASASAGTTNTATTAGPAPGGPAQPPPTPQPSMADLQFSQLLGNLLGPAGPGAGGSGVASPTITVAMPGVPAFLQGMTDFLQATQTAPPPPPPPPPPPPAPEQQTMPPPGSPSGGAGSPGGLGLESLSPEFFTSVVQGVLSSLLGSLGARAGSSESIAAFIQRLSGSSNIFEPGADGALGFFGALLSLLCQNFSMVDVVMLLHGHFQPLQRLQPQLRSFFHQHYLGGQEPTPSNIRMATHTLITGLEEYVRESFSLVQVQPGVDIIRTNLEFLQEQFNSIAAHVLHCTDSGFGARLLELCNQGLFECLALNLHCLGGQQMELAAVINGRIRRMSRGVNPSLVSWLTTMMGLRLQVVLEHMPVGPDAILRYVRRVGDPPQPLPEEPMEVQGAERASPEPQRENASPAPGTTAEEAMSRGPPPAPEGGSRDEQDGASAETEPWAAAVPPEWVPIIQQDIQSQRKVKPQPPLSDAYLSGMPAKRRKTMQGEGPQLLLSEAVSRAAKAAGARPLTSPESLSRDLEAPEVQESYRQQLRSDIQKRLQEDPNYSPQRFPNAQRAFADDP

Molecular target: T1, RAB3A (bait of the mass spectrometry experiment and of the Co-IP assays of Fig. S7; construct not told) (UniProt P20336)
T1 sequence: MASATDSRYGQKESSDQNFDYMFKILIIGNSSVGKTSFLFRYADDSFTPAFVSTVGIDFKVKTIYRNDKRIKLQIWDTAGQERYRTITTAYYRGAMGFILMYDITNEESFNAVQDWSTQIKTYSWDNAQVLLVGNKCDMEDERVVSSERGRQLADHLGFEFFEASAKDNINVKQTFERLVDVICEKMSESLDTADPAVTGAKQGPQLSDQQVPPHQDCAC
Assay: affinity purification with mass spectrometry; immunoprecipitates of RAB3A from the indicated stable cells sent for mass spectrometry analysis

binding: binds
Substance: BAG6 (endogenous) (from UniProt P46379 1-1132)
